Reference: publication PMC13053990
Results are given in words; binding and its absence hold for the method and conditions named. In cells and extracts the contact can be indirect. These calls come from enrichment with a bait or labelling near it, and not all partners need be listed.

B1: PI3K92 E (Phosphatidylinositol 3-kinase 92E) (protein, UniProt P91634 1-1088)
chain: MNMMDNRALAYVAHQPKYETPPEEAEPPCMRFSVNLWKNEMLNWVDLICLLPNGFLLELRVNPANTIQVIKVEMVNQAKQMPLGYVIKEACEYQVYGISTFNIEPYTDETKRLSEVQPYFGILSLGERTDTTSFSSDYELTKMVNGMIGTTFDHNRTHGSPEIDDFRLYMTQTCDNIELERSAYTWQQRLLYEHPLRLANSTKMPELIRERHPTRTFLIVVKNENDQSTFTLSVNEQDTPFSLTESTLQKMNRSQMKMNDRTSDYILKVSGRDEYLLGDYPLIQFLYIQEMLSDSAVPNVVLQSVYRLESYINHHNEQAMVTKRPLPKKRTVHLHKSISSLWDMGNYFQLTLHSISNVNFDKTRALKVGVHVCLYHGDKKLCAQRSTDSPNGNFDTFLFNDLVMDFDIQMRNLPRMTRLCIVIFEVTKMSRSKKSSNNKDIALKDVPYNKNPLAWVNTTIFDHKDILRTGRHTLYTWTYADDIQSVEVFHPLGTIEPNPRKEECALVDLTFLSSGTGTVRYPSEEVVLQYAADREQVNRLQRQLAGPEKPIKELKELMANYTGLDKIYEMVDQDRNAIWERRNDILRELPEELSILLHCVYWKERDDVADMWYLLKQWPLISIERSLELLDYAYPDPAVRRFAIRCLHFLKDEDLLLYLLQLVQAIKHESYLESDLVVFLLERALRNQRIGHYFFWHLRSEMQTPSMQTRFGLLLEVYLKGCKHHVAPLRKQLHVLEKLKQGSLIAKKGSKEKVKTMLQDFLRDQRNSAVFQNIQNPLNPSFRCSGVTPDRCKVMDSKMRPLWVVFENADVNASDVHIIFKNGDDLRQDMLTLQMLRVMDQLWKRDGMDFRMNIYNCISMEKSLGMIEVVRHAETIANIQKEKGMFSATSPFKKGSLLSWLKEHNKPADKLNKAINEFTLSCAGYCVATYVLGVADRHSDNIMVKRNGQLFHIDFGHILGHFKEKLGVRRERVPFVLTHDFVYVINKGFNDRESKEFCHFQELCERAFLVLRKHGCLILSLFSMMISTGLPELSSEKDLDYLRETLVLDYTEEKAREHFRAKFSEALANSWKTSLNWASHNFSKNNKQ
B2: ref(2)P (refractory to sigma P), the orthologue of the human p62/Sequestosome 1 protein (protein, UniProt P14199 1-599)
chain: MPEKLLKITYQGAGPQKKINAYLRMPSQNYTILRREIELYLFQERQLPKCDVRTFWIDADKDEIEIVNQNDYEIFLAKCESNMHVQVAPLAPVEEPKATKQEGSSANAEAPSVDDPSNFTIHDAVECDGCGLAPLIGFRYKCVQCSNYDLCQKCELAHKHPEHLMLRMPTNNGPGMVDAWFTGPGLGRRSGRRSRGHCPFQETNQADPAGEPARDSRRERRQARRHAGVLTQFVEMMTNLPLNTTTATAPAEPQKPKAAEQTESPPQAEPTVTAEKAAESEAKPTEPKKVNTDQSVPRTEDPVTTPRSTQPTTPVINLDNISQIVPPEYMSAGIEILNNFSEMFSKIIDTTEGGDSGIFAPSTTPSAENKKPEEQGQSSGQSGASSANQSAVPSAAPSANQSNVPSANQSATPSISGSIPDAQLETEPLNPKPSETTTETEQERRRSDSLDPEWQLIDNAYSANNSNLINLDTTNPTAAPQEPVRDFGQLGELLRQHMNEEARVEQASANTQTAQVDTVSTSTSTTSVTTNSVGTSPAAPDDKRTVPVYHTDESINKSIHAMMAMGFSNEGAWLTQLLESVQGNISAALDVMNVSQNRN

Target: EGFP-miPEP8 (Enhanced Green Fluorescent Protein-miPEP8) fused protein (Drosophila melanogaster)
Test: affinity purification with mass spectrometry; GFP-Trap agarose beads O/N at 4 °C on lysates of S2 cells transfected with EGFP, EGFP-miPEP8 or EGFP-miPEP8 SLiMmt; lysis buffer 50 mM Tris pH 7.5, 50 mM NaCl, 5% glycerol, 0.1% Igepal; four washes; LC-MS/MS, MaxQuant

Binder | binding
B1 | binds
B2 | binds
